Measurements reported in PubChem BioAssay AID1224828 (NIAID, 2016)
Assay: 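Knock-downs that increase or decrease LPS-induced p65 nuclear translocation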 (primary screen). Cell system: mouse RAW264.7 G9 macrophage reporter cells (GFP-p65, Tnf promoter-mCherry). Reagents: siRNA pool against mouse genes, 100 nM. Duration: 2 days siRNA transfection, then 40 min LPS before fixation. Treatment: LPS (Salmonella minnesota R595) at 10 ng/ml. Measured: 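Imaged p65 nuclear translocation ratio, normalised to the plate median, converted to robust z-scores and averaged across two replicates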. Reading the numbers: p65 translocation robust z-score: higher = more nuclear NF-kappaB p65 after LPS than the plate median; nuclear/cytoplasmic p65 ratio: higher = more nuclear NF-kappaB p65. Hit rule: 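Called active when z exceeds 3.3 or falls under -1.56 (median of Tlr4 controls), giving activity score of at least 50; no calls for control wells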. Meaning of the calls: active = hit (p65 shift raised or lowered); inactive = no clear change.
Here is one part, drawn at random, of about 17,000 reagents. Of all reagents, 762 (4.5%) were called active. 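Active calls include both raised and lowered p65 entry, mostly lowered; wells with fewer than 50 cells lack a z-score.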 Raw values are not corrected between plates.

Which result is listed for Umps?
p65 translocation robust z-score: 1.85; nuclear/cytoplasmic p65 ratio, rep 1: 1.64; nuclear/cytoplasmic p65 ratio, rep 2: 1.88; low cell count flag: enough cells to score; Outcome: inactive

What did the screen give for Dppa1?
nuclear/cytoplasmic p65 ratio, rep 1: 1.74; nuclear/cytoplasmic p65 ratio, rep 2: 1.34; low cell count flag: fewer than 50 cells per well; well left out of scoring; Outcome: inactive

With Pofut2, what was measured?
p65 translocation robust z-score: 0.46; nuclear/cytoplasmic p65 ratio, rep 1: 1.48; nuclear/cytoplasmic p65 ratio, rep 2: 1.23; low cell count flag: enough cells to score; Outcome: inactive

Which result is listed for Poglut1?
p65 translocation robust z-score: -2.07; nuclear/cytoplasmic p65 ratio, rep 1: 1.12; nuclear/cytoplasmic p65 ratio, rep 2: 1.29; low cell count flag: enough cells to score; Outcome: active

What is on record for Zfp438?
p65 translocation robust z-score: -0.34; nuclear/cytoplasmic p65 ratio, rep 1: 1.55; nuclear/cytoplasmic p65 ratio, rep 2: 1.76; low cell count flag: enough cells to score; Outcome: inactive

With Prkag2, what does the deposit list?
p65 translocation robust z-score: 0.3; nuclear/cytoplasmic p65 ratio, rep 1: 1.62; nuclear/cytoplasmic p65 ratio, rep 2: 1.7; low cell count flag: enough cells to score; Outcome: inactive

With Thop1, what was measured?
p65 translocation robust z-score: -0.85; nuclear/cytoplasmic p65 ratio, rep 1: 1.26; nuclear/cytoplasmic p65 ratio, rep 2: 0.996; low cell count flag: enough cells to score; Outcome: inactive

For Samd10, what was measured?
p65 translocation robust z-score: -0.82; nuclear/cytoplasmic p65 ratio, rep 1: 1.44; nuclear/cytoplasmic p65 ratio, rep 2: 1.46; low cell count flag: enough cells to score; Outcome: inactive

For Apoc2, how do the results read?
p65 translocation robust z-score: 0.88; nuclear/cytoplasmic p65 ratio, rep 1: 1.81; nuclear/cytoplasmic p65 ratio, rep 2: 1.56; low cell count flag: enough cells to score; Outcome: inactive

How did the screen score Tbcel?
p65 translocation robust z-score: -0.02; nuclear/cytoplasmic p65 ratio, rep 1: 1.47; nuclear/cytoplasmic p65 ratio, rep 2: 1.35; low cell count flag: enough cells to score; Outcome: inactive

With Ahi1, how do the results read?
p65 translocation robust z-score: -0.54; nuclear/cytoplasmic p65 ratio, rep 1: 1.51; nuclear/cytoplasmic p65 ratio, rep 2: 1.61; low cell count flag: enough cells to score; Outcome: inactive

For Wdpcp, what was measured?
p65 translocation robust z-score: 0.27; nuclear/cytoplasmic p65 ratio, rep 1: 1.32; nuclear/cytoplasmic p65 ratio, rep 2: 1.62; low cell count flag: enough cells to score; Outcome: inactive

For Duox2, what does the deposit list?
nuclear/cytoplasmic p65 ratio, rep 1: 1.4; nuclear/cytoplasmic p65 ratio, rep 2: 1.25; low cell count flag: fewer than 50 cells per well; well left out of scoring; Outcome: inactive

Which result is listed for Cox11?
p65 translocation robust z-score: 1.49; nuclear/cytoplasmic p65 ratio, rep 1: 1.73; nuclear/cytoplasmic p65 ratio, rep 2: 1.94; low cell count flag: enough cells to score; Outcome: inactive

What is on record for F11?
p65 translocation robust z-score: 2.85; nuclear/cytoplasmic p65 ratio, rep 1: 1.95; nuclear/cytoplasmic p65 ratio, rep 2: 1.64; low cell count flag: enough cells to score; Outcome: inactive

What did the screen give for Lrrc72?
p65 translocation robust z-score: -0.15; nuclear/cytoplasmic p65 ratio, rep 1: 1.34; nuclear/cytoplasmic p65 ratio, rep 2: 1.41; low cell count flag: enough cells to score; Outcome: inactive

With Tmem74, what was measured?
p65 translocation robust z-score: -1.45; nuclear/cytoplasmic p65 ratio, rep 1: 1.35; nuclear/cytoplasmic p65 ratio, rep 2: 1.35; low cell count flag: enough cells to score; Outcome: inactive

Which result is listed for Pgr?
p65 translocation robust z-score: 0.5; nuclear/cytoplasmic p65 ratio, rep 1: 1.55; nuclear/cytoplasmic p65 ratio, rep 2: 1.49; low cell count flag: enough cells to score; Outcome: inactive

What did the screen give for Socs4?
p65 translocation robust z-score: 1.98; nuclear/cytoplasmic p65 ratio, rep 1: 1.46; nuclear/cytoplasmic p65 ratio, rep 2: 2.22; low cell count flag: enough cells to score; Outcome: inactive

How did the screen score Pgk2?
p65 translocation robust z-score: 0.51; nuclear/cytoplasmic p65 ratio, rep 1: 1.82; nuclear/cytoplasmic p65 ratio, rep 2: 1.4; low cell count flag: enough cells to score; Outcome: inactive

With Pip4k2c, how do the results read?
p65 translocation robust z-score: -1.79; nuclear/cytoplasmic p65 ratio, rep 1: 1.35; nuclear/cytoplasmic p65 ratio, rep 2: 1.15; low cell count flag: enough cells to score; Outcome: active

For 3300002I08Rik, what was measured?
nuclear/cytoplasmic p65 ratio, rep 1: 1.23; nuclear/cytoplasmic p65 ratio, rep 2: 1.29; low cell count flag: fewer than 50 cells per well; well left out of scoring; Outcome: inactive

With Gstm1, what does the deposit list?
p65 translocation robust z-score: -0.56; nuclear/cytoplasmic p65 ratio, rep 1: 1.71; nuclear/cytoplasmic p65 ratio, rep 2: 1.33; low cell count flag: enough cells to score; Outcome: inactive

What is on record for Gpbar1?
p65 translocation robust z-score: 1.33; nuclear/cytoplasmic p65 ratio, rep 1: 1.65; nuclear/cytoplasmic p65 ratio, rep 2: 1.82; low cell count flag: enough cells to score; Outcome: inactive

With Il15, how do the results read?
p65 translocation robust z-score: 0.17; nuclear/cytoplasmic p65 ratio, rep 1: 1.33; nuclear/cytoplasmic p65 ratio, rep 2: 1.52; low cell count flag: enough cells to score; Outcome: inactive

For Akap13, how do the results read?
p65 translocation robust z-score: 0.22; nuclear/cytoplasmic p65 ratio, rep 1: 1.76; nuclear/cytoplasmic p65 ratio, rep 2: 1.39; low cell count flag: enough cells to score; Outcome: inactive

Which result is listed for Gpr157?
nuclear/cytoplasmic p65 ratio, rep 1: 1.43; nuclear/cytoplasmic p65 ratio, rep 2: 1.33; low cell count flag: fewer than 50 cells per well; well left out of scoring; Outcome: inactive
